{"source": "PubChem BioAssay AID652272 (Drosophila RNAi Screening Center, 2013)", "assay": "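Finding fly genes that regulate Hedgehog signal transduction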 (primary screen)", "cells": "Drosophila clone 8 (Cl8) cells", "reagent": "long dsRNA against Drosophila genes", "detection": "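Plate reader light from a firefly reporter under a ptc promoter fragment that responds to Hedgehog, with Renilla light as transfection reference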", "direction": "firefly Hh reporter signal: higher = more ptc reporter light; Renilla reference signal: higher = more Renilla control light", "rule for the call": "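Hit when the z-score averaged over two replicates is under -2 or over +3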", "meaning of the calls": "active = hit: reporter lowered or raised; inactive = not a hit", "note": "The deposit covers about 21,000 reagents; shown is an unselected part of those that have a named target and a result. In the full data, 503 (2.4%) were called active. 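Raw plate light values, not normalised; calls rest on replicate z-scores that were not deposited; hits include reporter decreases as well as increases.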 Unmarked entries are inactive. Reagents against one gene are numbered here. Not stated in the record: the amount of reagent, the time to read-out."}
{"Target gene": "CG13186", "dsRNA no.": 1, "firefly Hh reporter signal, replicate 1": 1.20e5, "firefly Hh reporter signal, replicate 2": 71937, "Renilla reference signal, replicate 1": 2569, "Renilla reference signal, replicate 2": 5328}
{"Target gene": "RpS8", "dsRNA no.": 1, "firefly Hh reporter signal, replicate 1": 22803, "firefly Hh reporter signal, replicate 2": 60825, "Renilla reference signal, replicate 1": 1361, "Renilla reference signal, replicate 2": 4044}
{"Target gene": "CG16781", "dsRNA no.": 1, "firefly Hh reporter signal, replicate 1": 74205, "firefly Hh reporter signal, replicate 2": 1.89e5, "Renilla reference signal, replicate 1": 2080, "Renilla reference signal, replicate 2": 6441}
{"Target gene": "Obp58b", "dsRNA no.": 1, "firefly Hh reporter signal, replicate 1": 89920, "firefly Hh reporter signal, replicate 2": 53005, "Renilla reference signal, replicate 1": 2291, "Renilla reference signal, replicate 2": 4380}
{"Target gene": "Amnionless", "dsRNA no.": 1, "firefly Hh reporter signal, replicate 1": 1.39e5, "firefly Hh reporter signal, replicate 2": 87616, "Renilla reference signal, replicate 1": 3344, "Renilla reference signal, replicate 2": 1884}
{"Target gene": "Acsx1R", "dsRNA no.": 1, "firefly Hh reporter signal, replicate 1": 7.00e5, "firefly Hh reporter signal, replicate 2": 1.19e5, "Renilla reference signal, replicate 1": 35355, "Renilla reference signal, replicate 2": 3693}
{"Target gene": "Culd", "dsRNA no.": 1, "firefly Hh reporter signal, replicate 1": 95180, "firefly Hh reporter signal, replicate 2": 94381, "Renilla reference signal, replicate 1": 4389, "Renilla reference signal, replicate 2": 3365}
{"Target gene": "CG6553", "dsRNA no.": 1, "firefly Hh reporter signal, replicate 1": 99357, "firefly Hh reporter signal, replicate 2": 68171, "Renilla reference signal, replicate 1": 2664, "Renilla reference signal, replicate 2": 4587}
{"Target gene": "CG7044", "dsRNA no.": 1, "firefly Hh reporter signal, replicate 1": 7.14e5, "firefly Hh reporter signal, replicate 2": 90451, "Renilla reference signal, replicate 1": 36629, "Renilla reference signal, replicate 2": 2512}
{"Target gene": "Dic3", "dsRNA no.": 1, "firefly Hh reporter signal, replicate 1": 99668, "firefly Hh reporter signal, replicate 2": 66112, "Renilla reference signal, replicate 1": 2432, "Renilla reference signal, replicate 2": 5898}

Only “Renilla reference signal, replicate 2”, for 3 of the entries above:
Culd = 3365
CG6553 = 4587
CG7044 = 2512

Additional records:
{"Target gene": "LManIII", "dsRNA no.": 1, "firefly Hh reporter signal, replicate 1": 78099, "firefly Hh reporter signal, replicate 2": 38396, "Renilla reference signal, replicate 1": 2067, "Renilla reference signal, replicate 2": 3844}
{"Target gene": "CG33752", "dsRNA no.": 1, "firefly Hh reporter signal, replicate 1": 1.80e5, "firefly Hh reporter signal, replicate 2": 3.01e5, "Renilla reference signal, replicate 1": 4386, "Renilla reference signal, replicate 2": 12898}
{"Target gene": "CG5399", "dsRNA no.": 1, "firefly Hh reporter signal, replicate 1": 77478, "firefly Hh reporter signal, replicate 2": 93586, "Renilla reference signal, replicate 1": 3328, "Renilla reference signal, replicate 2": 2811}
{"Target gene": "CG32188", "dsRNA no.": 1, "firefly Hh reporter signal, replicate 1": 2.06e5, "Renilla reference signal, replicate 1": 5233}
{"Target gene": "CG15011", "dsRNA no.": 1, "firefly Hh reporter signal, replicate 1": 99633, "firefly Hh reporter signal, replicate 2": 47239, "Renilla reference signal, replicate 1": 3509, "Renilla reference signal, replicate 2": 1814}
{"Target gene": "Dpp10", "dsRNA no.": 1, "firefly Hh reporter signal, replicate 1": 6.03e5, "firefly Hh reporter signal, replicate 2": 1.53e5, "Renilla reference signal, replicate 1": 28441, "Renilla reference signal, replicate 2": 6090}
{"Target gene": "Dpp10", "dsRNA no.": 2, "firefly Hh reporter signal, replicate 1": 54228, "firefly Hh reporter signal, replicate 2": 56922, "Renilla reference signal, replicate 1": 1261, "Renilla reference signal, replicate 2": 5831}
{"Target gene": "CG3746", "dsRNA no.": 1, "firefly Hh reporter signal, replicate 1": 95173, "firefly Hh reporter signal, replicate 2": 52617, "Renilla reference signal, replicate 1": 2608, "Renilla reference signal, replicate 2": 5319}
{"Target gene": "tud", "dsRNA no.": 1, "firefly Hh reporter signal, replicate 1": 78322, "firefly Hh reporter signal, replicate 2": 50348, "Renilla reference signal, replicate 1": 2011, "Renilla reference signal, replicate 2": 4784}
{"Target gene": "Ephrin", "dsRNA no.": 1, "firefly Hh reporter signal, replicate 1": 96552, "firefly Hh reporter signal, replicate 2": 2.16e5, "Renilla reference signal, replicate 1": 3668, "Renilla reference signal, replicate 2": 7547}
{"Target gene": "ProtB", "dsRNA no.": 1, "firefly Hh reporter signal, replicate 1": 1.05e5, "firefly Hh reporter signal, replicate 2": 51098, "Renilla reference signal, replicate 1": 2682, "Renilla reference signal, replicate 2": 5383}
